Data source: PubChem BioAssay AID720505 (Drosophila RNAi Screening Center, 2013)

- Test: 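Knock-downs that reduce calcium influx once internal stores are emptied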 (primary screen)
- Cells: Drosophila S2R+ cells
- Reagents: long dsRNA against Drosophila genes
- Challenge: thapsigargin (2 µM) in calcium-free buffer to empty internal stores, then 2 mM calcium added back
- Detection: 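Stores emptied by 2 µM thapsigargin without calcium, then 2 mM calcium re-added; fluo-4 fluorescence followed by FLIPR in 384-well plates, per-well averaged endpoint, raw; two screen passes, some wells retested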
- Scale: calcium signal and retest calcium signal: higher = more calcium entry after store depletion
- Hit rule: 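Knock-downs counted as hits when calcium entry dropped relative to STIM1 positive and Rho1 negative controls present on each plate; roughly 1500 genes called, with reductions of differing size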
- Calls: active = called as lowering calcium entry; inactive = not called
The deposit covers about 20,000 reagents; below is a random part of those with a known target gene and a result. Over the whole deposit, about 2,100 (10%) are marked active. 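Raw plate signals without normalisation; calls rest on control-based scores that were not deposited; replicate 2 separates called from uncalled poorly.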 Names joined by + are all predicted targets of the reagent. Reagent sequences are not shown. Not stated in the record: the amount of reagent, the time to read-out.

target	PubChem SID	calcium signal, replicate 1	calcium signal, replicate 2	retest calcium signal, replicate 1	retest calcium signal, replicate 2	outcome
Try29F	SID104183258	102	121			inactive
Kots	SID104196373	78.7	112			active
mei-P26	SID104197527	113	75.5			inactive
mei-P26	SID104202406	116	158			inactive
CG30274	SID104183963	103	132			inactive
CG32713	SID104202130	145	171			inactive
mgr	SID104195891	91	94.9			inactive
Dph5	SID104196445	186	233			inactive
Ir7g	SID104197800	166	114			inactive
CG3483	SID104184163	185	98.3			inactive
CG10927	SID104185806	130	114			inactive
CG31775 + CG42586	SID104201805	101	203			inactive
CG31775 + CG42586	SID104202623	106	134			inactive
CG13051	SID104189724	84.6	157			inactive
CG18628	SID104190120	72.7	85.8			inactive
velo	SID104189490	103	119			inactive
ey	SID104196965	94.9	154			inactive
CG8526	SID104196230	145	79.6			inactive
Rilpl	SID104198286	83	85			inactive
Art9	SID104196376	114	162			inactive
DNAlig4	SID104199228	56.1	117			active
CG18622	SID104195152	132	144			inactive
dmt	SID104196724	66.8	95.6			active
Ect3	SID104195254	179	104			inactive
Ir92a	SID104194903	141	113			inactive
CG15528	SID104194857	161	149			inactive
CG6073	SID104195754	59.1	147	124	141	active
CG6073	SID104202114	101	209			inactive
Jheh3	SID104186325	119	133			inactive
Cyp6a20	SID104187172	159	101			inactive
CG32457	SID104191388	6332	154			inactive
CG32457	SID104201394	148	113			inactive
CG3191	SID104198322	121	170	109	82.6	inactive
Sec16	SID104199580	72	92			inactive
Sec16	SID104199650	99	98.1			inactive
CG12836	SID104185974	56.6	133			active
CG43326 + CG43325	SID104183949	84.5	188			inactive
CG8366	SID104186945	97.9	95			inactive
fabp + sea	SID104195906	70.7	130			active
fabp + sea	SID104195907	78.8	120			active
Or88a	SID104196562	113	169			inactive
bam	SID104196699	243	165			inactive
Vm26Ab	SID104183265	119	95	80.7	95.2	inactive
HP1e	SID104196171	52.8	107			active
CG17105	SID104182366	231	177			inactive
Fit2	SID104190700	124	134			inactive
stas	SID104199896	144	167			inactive
Alp4	SID104193908	172	123			inactive
CG2617	SID104182504	63.1	126			active
CG15155	SID104182248	109	134			inactive
Mtk	SID104187267	110	186			inactive
ND-B14.7	SID104184336	44	148			inactive
yps	SID104191203	89.9	86.3			inactive
cal1	SID104195517	151	224			inactive
CG18549	SID104195139	168	98.9			inactive
CG4537	SID104182548	163	139			inactive
Mst77F	SID104191663	136	112			inactive
CG43155	SID104199434	102	108			inactive
CG43155	SID104199569	114	103			inactive
CG18809	SID104199610	50.6	92.1			active
superdeath	SID104194660	96.7	143			inactive
hui	SID104185769	155	97.1			inactive
nkd	SID104191168	96.5	133			inactive
Rpn13R	SID104198196	239	80.9			inactive
okr	SID104180626	144	241			inactive
CG4763	SID104183801	74	115			active
CG4763	SID104184279	113	186			inactive
frm	SID104189545	67.6	128	124	95.1	active
CG2065	SID104186605	111	150			inactive
CG2065	SID104201110	96.4	69			inactive
CG14495	SID104186258	96	120			inactive
UbcE2M	SID104190620	83.8	84.4			inactive
Ptp69D	SID104191050	97.1	70.9			inactive
Oatp58Dc	SID104184155	101	90.4			inactive
CG30447	SID104185612	122	81			inactive
lili	SID104193935	176	173			inactive
eIF4E6	SID104194645	175	179			inactive
CG32073	SID104189686	95.6	70.1			inactive
CG14052	SID104197699	55.8	125			active
CG14052	SID104197984	133	149			inactive
CG12849	SID104183921	129	191			inactive
List	SID104186312	178	110			inactive
CG6923	SID104195928	85.6	95.9			inactive

Limited to “calcium signal, replicate 2” (5 entries from above):
Try29F [SID104183258]	121
Kots [SID104196373]	112
mei-P26 [SID104197527]	75.5
mei-P26 [SID104202406]	158
CG30274 [SID104183963]	132
